Reference: article PMC7552406
Where a chain is given by its changes, count along the chain named. These are yes or no findings as the source states them, for the method shown. Binding seen in cells or lysates may run through a third protein. Some results given as binding are weak or reduced against the parent protein; the word gives no strength. Tags and fused reporters may be left off the sequences shown. One block for each molecule: values may come before it.

The chains behind the UniProt entries cited, without tags or fusion partners. Residues count along the entry.
UniProt Q07021, residues 74-282: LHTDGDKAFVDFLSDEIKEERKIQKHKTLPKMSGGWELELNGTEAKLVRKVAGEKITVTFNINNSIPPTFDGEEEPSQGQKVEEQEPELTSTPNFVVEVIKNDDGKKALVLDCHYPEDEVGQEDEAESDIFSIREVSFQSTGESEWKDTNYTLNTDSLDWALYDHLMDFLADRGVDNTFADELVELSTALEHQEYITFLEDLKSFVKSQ

Tests used:
Assay in all cases: co-IP; immunopurification of FLAG-RECQ4 complexes from whole cell extracts of stable RECQ4 KD HEK293 cells expressing FLAG-RECQ4 WT, ID or P466L; lysis in 50 mM Tris-HCl pH 7.4, 150 mM NaCl, 1 mM EDTA, 0.5% Triton X-100, 10% glycerol; Western blot for p32, TWINKLE and TFAM
[1] = target: T1, FLAG-tagged RECQ4 wildtype (WT) (human) (UniProt O94761)
T1 sequence: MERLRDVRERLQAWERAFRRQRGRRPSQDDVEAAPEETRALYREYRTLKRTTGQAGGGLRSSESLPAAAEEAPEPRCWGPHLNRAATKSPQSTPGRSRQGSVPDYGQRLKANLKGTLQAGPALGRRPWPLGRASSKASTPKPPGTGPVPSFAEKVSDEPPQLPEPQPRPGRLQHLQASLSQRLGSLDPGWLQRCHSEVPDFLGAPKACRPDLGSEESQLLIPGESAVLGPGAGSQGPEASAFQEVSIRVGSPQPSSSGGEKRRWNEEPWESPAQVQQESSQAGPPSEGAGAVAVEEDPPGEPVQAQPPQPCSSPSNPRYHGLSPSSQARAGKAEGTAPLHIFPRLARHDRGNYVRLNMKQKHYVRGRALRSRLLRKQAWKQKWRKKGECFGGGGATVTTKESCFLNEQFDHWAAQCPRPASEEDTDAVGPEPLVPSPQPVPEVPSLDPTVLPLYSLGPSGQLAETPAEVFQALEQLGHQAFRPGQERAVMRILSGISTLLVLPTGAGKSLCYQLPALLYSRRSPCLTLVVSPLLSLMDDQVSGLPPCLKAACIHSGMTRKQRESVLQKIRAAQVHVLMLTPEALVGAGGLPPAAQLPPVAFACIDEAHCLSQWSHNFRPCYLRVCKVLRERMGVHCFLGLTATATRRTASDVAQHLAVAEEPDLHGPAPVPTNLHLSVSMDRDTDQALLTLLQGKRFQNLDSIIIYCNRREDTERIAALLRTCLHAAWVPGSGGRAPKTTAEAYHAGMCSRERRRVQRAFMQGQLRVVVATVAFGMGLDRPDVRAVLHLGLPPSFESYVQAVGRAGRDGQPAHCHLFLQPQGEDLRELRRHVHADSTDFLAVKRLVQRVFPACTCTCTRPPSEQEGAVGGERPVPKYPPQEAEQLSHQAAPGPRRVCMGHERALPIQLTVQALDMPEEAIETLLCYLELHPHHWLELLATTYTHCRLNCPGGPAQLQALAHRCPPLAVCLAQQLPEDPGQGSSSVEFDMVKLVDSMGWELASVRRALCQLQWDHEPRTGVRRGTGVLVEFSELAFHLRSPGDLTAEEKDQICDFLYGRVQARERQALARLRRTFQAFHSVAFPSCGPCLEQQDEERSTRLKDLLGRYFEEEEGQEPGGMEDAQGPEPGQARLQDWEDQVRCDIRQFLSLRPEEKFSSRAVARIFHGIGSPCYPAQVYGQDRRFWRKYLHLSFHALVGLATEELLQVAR

[2] = target: T2, FLAG-RECQ4 P466L mutant (human) (UniProt O94761)
T2 sequence: T1 sequence with P466L

[3] = target: T3, FLAG-RECQ4 ID mutant, del(A420-A463) (human) (UniProt O94761)
T3 sequence: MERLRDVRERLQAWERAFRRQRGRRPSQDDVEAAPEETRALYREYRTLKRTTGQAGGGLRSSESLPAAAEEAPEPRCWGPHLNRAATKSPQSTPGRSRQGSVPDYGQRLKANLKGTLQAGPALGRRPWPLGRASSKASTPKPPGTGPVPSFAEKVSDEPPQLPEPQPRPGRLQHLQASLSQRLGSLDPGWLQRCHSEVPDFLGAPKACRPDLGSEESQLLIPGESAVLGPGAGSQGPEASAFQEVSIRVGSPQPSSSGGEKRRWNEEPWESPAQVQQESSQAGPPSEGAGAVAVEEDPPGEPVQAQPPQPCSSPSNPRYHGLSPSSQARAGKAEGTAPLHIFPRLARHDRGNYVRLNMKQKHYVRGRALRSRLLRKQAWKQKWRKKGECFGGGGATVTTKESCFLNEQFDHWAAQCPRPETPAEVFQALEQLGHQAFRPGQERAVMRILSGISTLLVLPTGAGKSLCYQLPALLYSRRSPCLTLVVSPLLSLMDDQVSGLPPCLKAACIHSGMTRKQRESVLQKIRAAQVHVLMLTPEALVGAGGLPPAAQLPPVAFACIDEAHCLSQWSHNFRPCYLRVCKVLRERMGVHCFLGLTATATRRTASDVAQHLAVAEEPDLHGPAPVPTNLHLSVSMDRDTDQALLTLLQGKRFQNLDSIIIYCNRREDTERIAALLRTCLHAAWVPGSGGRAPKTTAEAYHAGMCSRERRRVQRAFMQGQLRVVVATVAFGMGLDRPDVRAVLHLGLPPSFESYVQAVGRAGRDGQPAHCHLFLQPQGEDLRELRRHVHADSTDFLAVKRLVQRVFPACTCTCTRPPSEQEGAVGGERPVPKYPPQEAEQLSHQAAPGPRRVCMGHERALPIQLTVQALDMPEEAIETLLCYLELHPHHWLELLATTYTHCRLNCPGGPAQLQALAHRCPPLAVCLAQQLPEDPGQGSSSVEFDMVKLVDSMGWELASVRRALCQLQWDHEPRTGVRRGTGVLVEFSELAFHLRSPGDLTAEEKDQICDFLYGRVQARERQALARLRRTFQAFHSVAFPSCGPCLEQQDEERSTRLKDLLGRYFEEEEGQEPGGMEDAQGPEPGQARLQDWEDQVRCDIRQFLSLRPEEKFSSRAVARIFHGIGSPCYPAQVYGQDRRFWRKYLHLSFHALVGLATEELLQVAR

binding [1]: binds
Molecule: Mitochondrial membrane protein p32 (from UniProt Q07021 74-282)

binding [2]: binds | binding [1]: binds | binding [3]: binds
B1: TWINKLE mitochondrial replication helicase (enzyme, UniProt Q96RR1 32-684)
chain: APGPPRRRYRKETLQALDMPVLPVTATEIRQYLRGHGIPFQDGHSCLRALSPFAESSQLKGQTGVTTSFSLFIDKTTGHFLCMTSLAEGSWEDFQASVEGRGDGAREGFLLSKAPEFEDSEEVRRIWNRAIPLWELPDQEEVQLADTMFGLTKVTDDTLKRFSVRYLRPARSLVFPWFSPGGSGLRGLKLLEAKCQGDGVSYEETTIPRPSAYHNLFGLPLISRRDAEVVLTSRELDSLALNQSTGLPTLTLPRGTTCLPPALLPYLEQFRRIVFWLGDDLRSWEAAKLFARKLNPKRCFLVRPGDQQPRPLEALNGGFNLSRILRTALPAWHKSIVSFRQLREEVLGELSNVEQAAGLRWSRFPDLNRILKGHRKGELTVFTGPTGSGKTTFISEYALDLCSQGVNTLWGSFEISNVRLARVMLTQFAEGRLEDQLDKYDHWADRFEDLPLYFMTFHGQQSIRTVIDTMQHAVYVYDICHVIIDNLQFMMGHEQLSTDRIAAQDYIIGVFRKFATDNNCHVTLVIHPRKEDDDKELQTASIFGSAKASQEADNVLILQDRKLVTGPGKRYLQVSKNRFDGDVGVFPLEFNKNSLTFSIPPKNKARLKKIKDDTGPVAKKPSSGKKGATTQNSEICSGQAPTPDQPDTSKRSK
